Assay results from publication PMC8062120.
These are yes or no findings as the source states them, for the method shown. Some entries that bind do so weakly or less than the wild type. For some assays here: Tags and fused reporters may be left off the sequences shown.

Sequences of proteins named here, by UniProt entry; tags and fusion partners are left off.
UniProt P35609: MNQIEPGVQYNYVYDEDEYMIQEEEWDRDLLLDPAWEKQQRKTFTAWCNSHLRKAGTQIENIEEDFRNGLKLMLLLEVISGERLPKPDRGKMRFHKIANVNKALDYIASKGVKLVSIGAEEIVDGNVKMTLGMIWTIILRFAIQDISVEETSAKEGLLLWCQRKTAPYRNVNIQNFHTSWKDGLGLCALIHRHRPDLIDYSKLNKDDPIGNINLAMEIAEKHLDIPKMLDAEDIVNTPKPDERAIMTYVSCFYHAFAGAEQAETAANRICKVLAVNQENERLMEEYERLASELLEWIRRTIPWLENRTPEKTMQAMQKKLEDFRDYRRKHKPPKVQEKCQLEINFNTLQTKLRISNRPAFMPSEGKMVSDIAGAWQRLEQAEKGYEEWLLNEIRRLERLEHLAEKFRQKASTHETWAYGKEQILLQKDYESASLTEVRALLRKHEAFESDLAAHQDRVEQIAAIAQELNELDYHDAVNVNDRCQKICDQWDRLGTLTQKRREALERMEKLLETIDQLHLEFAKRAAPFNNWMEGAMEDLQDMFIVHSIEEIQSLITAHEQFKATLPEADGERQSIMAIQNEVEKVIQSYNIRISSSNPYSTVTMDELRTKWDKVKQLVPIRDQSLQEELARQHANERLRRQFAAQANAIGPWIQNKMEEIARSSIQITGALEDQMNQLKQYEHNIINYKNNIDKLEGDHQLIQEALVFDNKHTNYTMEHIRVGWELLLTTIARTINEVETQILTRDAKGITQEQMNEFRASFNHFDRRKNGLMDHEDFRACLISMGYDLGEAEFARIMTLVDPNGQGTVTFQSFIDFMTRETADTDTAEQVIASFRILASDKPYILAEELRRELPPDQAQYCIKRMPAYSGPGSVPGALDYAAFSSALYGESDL

What was measured:
[1] = biological target: Myotilin Ig1Ig2^250–498 (human) (UniProt Q9UBF9); assay: SAXS; batch SAXS at high or comparable concentrations; Ig1Ig2^250–444 up to 14.12 mg/ml, Ig1Ig2^250–498 up to 42.8 mg/ml, Ig1Ig2^220–452 up to 52 or 36.6 mg/ml, R405K up to 45.5 mg/ml; 20 mM HEPES, 150 mM NaCl, 5% glycerol, 1 mM DTT, pH 7.4 (one 220–452 set in 20 mM MES, 200 mM NaCl, pH 6.0); mass from I0, Rg, Dmax, P(r); monomer to dimer; both …
[2] = biological target: T1, Full-length myotilin with N-terminal thioredoxin tag (Trx-MYOT) (human) (UniProt Q9UBF9); assay: pull-down; Trx-MYOT (5 μM) mixed with α-actinin-2 constructs (2.5 to 7.5 μM) in buffer P (20 mM Tris-HCl, 100 mM NaCl, 10 mM imidazole, 5% glycerol, pH 7.5), captured on Co2+-loaded Chelating Sepharose beads, room temperature; SDS-PAGE; both purified
T1 sequence: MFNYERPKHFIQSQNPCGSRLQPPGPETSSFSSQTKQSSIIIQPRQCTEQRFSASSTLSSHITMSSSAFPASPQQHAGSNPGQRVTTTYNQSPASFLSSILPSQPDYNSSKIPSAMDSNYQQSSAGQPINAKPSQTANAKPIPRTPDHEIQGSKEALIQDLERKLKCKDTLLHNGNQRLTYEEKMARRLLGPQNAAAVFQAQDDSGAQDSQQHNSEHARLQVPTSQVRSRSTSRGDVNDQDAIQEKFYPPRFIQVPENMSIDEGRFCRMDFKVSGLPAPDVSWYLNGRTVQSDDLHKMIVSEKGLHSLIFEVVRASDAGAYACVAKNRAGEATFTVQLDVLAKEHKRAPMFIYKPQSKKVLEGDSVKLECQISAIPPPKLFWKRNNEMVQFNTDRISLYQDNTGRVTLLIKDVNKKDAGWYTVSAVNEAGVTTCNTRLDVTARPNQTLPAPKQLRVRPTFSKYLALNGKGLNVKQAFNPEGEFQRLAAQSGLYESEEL

binding [1]	binding [2]	Substance
binds weakly		Myotilin Ig1Ig2^250–498 (from UniProt Q9UBF9 250-498) (domain or fragment)
	no binding (tested: 2.5 to 7.5 μM)	Wild-type α-actinin-2 (ACTN2-WT) (from UniProt P35609 1-894)
